Our source for the binding values is article PMC13289029.

Results are given in words; binding and its absence hold for the method and conditions named. In cells and extracts the contact can be indirect. A result given as binding can be weak or reduced; the word gives no strength. Tags and fused reporters may be left off the sequences shown.

This test concerns the target DacA-luciN (Streptococcus mutans UA159). Briefly: split reporter; split Renilla luciferase complementation in living S. mutans, mid-log culture in THB, coelenterazine-h, luminescence normalized to OD600; compared with DacA-luciN + luciC negative control.

B1: 723-luciC (protein, UniProt Q8DV01 1-893)
chain: MFKKQKRDSFYVQDEKTVLSGLESSKKGLTSTQAKQRLADYGYNELEEDEKRTILAKFIDQFKDLMIIILLVAAALSVITEGMGGLTDAIIILVVVVLNAAFGVYQEGQAEAAIEALKSMSSPHARVRRDGHVTEIDSKELVPGDVVLLEAGDVVPADMRLLEAASLKIEEAALTGESVPVEKSVTVAIASDAGIGDRLNMAYQNSNVTYGRGMGVVTNTGMYTEVGHIAGMLANADETDTPLKQSLDNLSKVLTYVIIIIAIITCLVGIFVRHEEPLEGLMVAVALAVAAIPEGLPAIVTVVLSLGTKTLAKRQSIVRKLPAVETLGSTEIIASDKTGTLTMNQMTVEKVYYNGRLVDANDDIDVNNMALRVMNFANDSKVDANGKLIGDPTETALVQYGFDHNFDIREVLKAELRVAELPFDSDRKLMSTIHKLDGEKYLIAVKGAPDQLLKRITQIEIDGSIRPITEDDKKAILDMNKSLAKQALRVLMIAYKYESEIPKLETAVVENDLIFAGLVGMIDPERPEAAEAVHVAKEAGIRPIMITGDHQDTAEAIAKRLGIIDDDGIDHVFTGAELNELSDEEFQKVFKQYSVYARVSPEHKVRIVKAWQNDGKIVAMTGDGVNDAPSLKTADIGIGMGITGTEVSKGASDMVLADDNFATIIVAVEEGRKVFSNIQKSIQYLLSANMAEVFTIFFATLFGWDVLQPVHLLWINLVTDTLPAIALGVEPAEPGVMTHKPRGRKSSFFSGGVMGAIIYQGILQTLLVLGVYGWAVFFPEHATRTEIHADALTMAFATLGLIQLVHAYNVKSVYQSIFKVGFFKNKTFNWALPTALIIMLATIVIPGFNRFFHVSHLSVTQWCVVVGGSLAMFVIVEIVKAIQRVLGQDQKAI
B1: the binding entry was “binds”.

B2: GapC-luciC (protein, UniProt Q8DVV3 1-337)
chain: MVVKVGINGFGRIGRLAFRRIQNVEGVEVTRINDLTDPNMLAHLLKYDSTQGRFDGNVEVKEGGFEVNGKFVKVSAERDPEQIDWAADGVEIVLEATGFFASKAAAEKHLHANGGAKKVVITAPGGNDIKTIVFNTNHDVLDGTETVISGASCTTNCLAPMAKALHDNFSIKEGLMTTIHAYTGDQMVLDGPHRKGDLRRARAAAANIVPNSTGAAKAIGLVIPELNGKLDGAAQRVPVPTGSVTELVAVLDKKVTVDEVNAAMKAAANESYGYTEDPIVSSDIVGMSFGSLFDATQTKVLDVDGKQLVKVVSWYDNEMSYTSQLVRTLEYFAKIAK
In the case of B2, the binding result is on record as “binds”.
